The values below come from paper PMC12040169 (PLOS Biology, 2025).

This is one part of the list.

In this experiment the test system is T1, CTL2-GFP (C. trachomatis L2/434/Bu, GFP-expressing).
T1 construct: L2/434/Bu, GFP-expressing
On the set-up: species or system HeLa; Intracellular C. trachomatis growth in HeLa cells, bulk GFP fluorescence relative to DMSO. Particulars: bulk GFP, single well; 28.5 h, 10 µM; inhibitor.
As to `Cn1c(=O)n(C)c2cc(S(=O)(=O)NCCC(=O)O)ccc21` [CBK267565], the “% of control remaining” value was found to be 118.75%.

As for `COCC(=O)N1c2ccccc2CC[C@@H]1C(=O)OC` [CBK285472], the “% of control remaining” value is listed as 131.259%.

Take `CC(C)(C)OC(=O)NC(C)(C)C(=O)N1CC(C(=O)O)C(c2cc3ccccc3o2)C1` (stereo not shown) [CBK003236]: the “% of control remaining” value is 102.502%.

`CCCC(=O)Nc1ccc2c(c1)nc1n2CCN(Cc2ccccc2)C1` [CBK267129]: the “% of control remaining” value amounted to 110.206%.

Regarding `CCNC(=S)N(CCc1ccccc1)C1CC(=O)N(c2ccc(F)cc2)C1=O` (stereo not shown) [CBK262941], the “% of control remaining” value worked out at 91.4344%.

On to `Cc1onc(-c2ccccc2)c1CNC(=O)/C=C/c1ccc2c(c1)OCO2` [CBK144085], for which the “% of control remaining” value is 123.975%.

Consider `O=C(c1ccccn1)N(CCc1ccccc1)c1nc2ccccc2s1` [CBK295151], for which the “% of control remaining” value was found to be 102.696%.

Regarding `CCCC(C(=O)NC(C)(C)CN1CCCCC1)n1nc(C)cc1C` (stereo not shown) [CBK282061], the “% of control remaining” value was 136.444%.

`CCCS(=O)(=O)c1ccc(NC(=O)Nc2ccc(Cl)cc2Cl)cc1` [CBK008564]: the “% of control remaining” value was determined as 53.3975%.

`CCOC(=O)c1c(-c2ccc(Cl)cc2)csc1NC(=O)CCCC(=O)O` [CBK296929]: the “% of control remaining” value came out at 115.757%.

In the case of `O=C(CN1CCN(c2ccc([N+](=O)[O-])cn2)CC1)Nc1ccc2c(c1)OCO2` [CBK074679], the “% of control remaining” value is listed as 93.9118%.

`Cn1c2ccccc2c2nnc(SCCCC(=O)c3ccc(F)cc3)nc21` [CBK268830]: the “% of control remaining” value is recorded as 134.989%.

On to `O=C1C(C2CCN(Cc3ccc4ncccc4c3)CC2)CC=CCN1Cc1ccccc1` (stereo not shown) [CBK286269], for which the “% of control remaining” value was 112.543%.

On to `NC(Cc1ccccc1)CN(CC1(c2ccc(Cl)cc2)CC1)C(=O)Nc1ccc2c(c1)OCO2` (stereo not shown) [CBK002342C], for which the “% of control remaining” value amounted to 39.4153%.

Consider `CN(CCc1cccnc1)CC(=O)Nc1cccc(Cl)c1` [CBK304108], for which the “% of control remaining” value was 132.156%.

For the compound `CC(=O)c1ccc(-c2nccnc2NCc2ccc(C(F)(F)F)cc2)s1` [CBK037983], the “% of control remaining” value was determined as 117.255%.

Take `C[C@H](c1ccccc1)n1c(=O)[nH]c2ncc(-c3cccc(/C=C/C(=O)O)c3)nc21` [CBK064983]: the “% of control remaining” value amounted to 88.8093%.

Take `CC(=O)Nc1ccc(S(=O)(=O)Oc2ccc(C3C4=C(CC(C)(C)CC4=O)N=C4c5ccccc5C(=O)C43)cc2)cc1` (stereo not shown) [CBK262964]: the “% of control remaining” value is listed as 100%.

Take `CN1CCC(Oc2nc3cc(Cl)c(Cl)cc3nc2N2CCCC2)CC1` [CBK115290]: the “% of control remaining” value was 122.394%.

Consider `CCOc1cc(-c2noc(CCC(=O)N3CCN(C)CC3)n2)ccc1OC` [CBK269513], for which the “% of control remaining” value is 123.126%.

`Nc1c(C(=O)NCc2ccccc2)c2nc3ccccc3nc2n1CCO` [CBK267201]: the “% of control remaining” value was found to be 88.794%.

Take `O=C(CCN1C(=O)c2cc(Cl)c(Cl)cc2C1=O)Nc1cccc(-c2cnc3ccccc3n2)c1` [CBK268575]: the “% of control remaining” value is 92.946%.

Regarding `O=C(Cc1ccccc1C(=O)O)Nc1ccc(-n2cncn2)c(Cl)c1` [CBK286756], the “% of control remaining” value is listed as 138.646%.

On to `COc1ccc(NC(=O)CCn2ccc3ccncc32)c(C)c1` [CBK282860], for which the “% of control remaining” value was 93.5217%.

As for `CC(C)Nc1nccnc1Sc1nc[nH]n1` [CBK115205], the “% of control remaining” value amounted to 104.034%.

On to `COc1cc(/C=N/NC(=O)C2COc3ccccc3O2)cc([N+](=O)[O-])c1O` (stereo not shown) [CBK261480], for which the “% of control remaining” value is given as 105.067%.

As to `O=C(NC(c1ccccc1)c1ccsc1)C1CCN(S(=O)(=O)c2cccc(Cl)c2)CC1` (stereo not shown) [CBK060188], the “% of control remaining” value is 123.629%.

As for `COc1ccc(CNS(=O)(=O)c2cc(OCC(N)=O)c(C)cc2Cl)cc1` [CBK266495], the “% of control remaining” value stood at 147.116%.

In the case of `Cn1c(=O)c2c(ncn2CC(=O)Nc2cccnc2)n(C)c1=O` [CBK133286], the “% of control remaining” value is given as 108.996%.

On to `Cc1ccnn1CCC(=O)N1CCCC1c1cc2cccnc2[nH]1` (stereo not shown) [CBK282230], for which the “% of control remaining” value is given as 111.689%.

As to `CCN(C)c1c(C)nc2c(OCc3cccc(Cl)c3)cccn12` [CBK147310], the “% of control remaining” value turned out to be 79.943%.

Take `COc1ccc(CNC2CCCc3c2cnn3C)c(OC)c1` (stereo not shown) [CBK304875]: the “% of control remaining” value worked out at 119.515%.

On to `Cn1nc(CO)c2c1CCN(CC(=O)Nc1nc(C(C)(C)C)cs1)C2` [CBK307161], for which the “% of control remaining” value is 112.9%.

`CCc1ccc(CNC(=O)Cn2nnc(-c3ccc(CNC4CCOCC4)cc3)n2)cc1` [CBK161029C]: the “% of control remaining” value was 65.2788%.

With `COC1C(O)C(CO)OC1n1cc(C)c(N)nc1=O` (stereo not shown) [CBK201227], the “% of control remaining” value was determined as 83.1963%.

With `O=c1c2ccccc2[nH]c(=S)n1CCCN1CCOCC1` [CBK092141], the “% of control remaining” value came to 131.921%.

Regarding `CN1CCC(CN(C)CC2CCCN(Cc3ccccc3)C2)C1` (stereo not shown) [CBK282946], the “% of control remaining” value was 130.035%.

Turning to `COc1cc2c(cc1OC)C1(CCOCC1)CNC2CC(c1ccccc1)c1ccccc1` (stereo not shown) [CBK014382], the “% of control remaining” value came to 127.946%.

In the case of `CCOC(=O)C1CCN(S(=O)(=O)c2ccc(C(C)(C)C)cc2)CC1` [CBK051240], the “% of control remaining” value is 125.818%.

Take `Fc1ccc2[nH]c3c(c2c1)CCN1C(c2ccccn2)N2CCC31CC2` (stereo not shown) [CBK284431]: the “% of control remaining” value is listed as 122.537%.

On to `O=C(O)CCC(=O)N1c2ccccc2CC1c1ccccc1` (stereo not shown) [CBK286860], for which the “% of control remaining” value is reported as 104.735%.

Turning to `Cc1nnc(Nc2ccc(F)cc2)c2ccccc12` [CBK287873], the “% of control remaining” value amounted to 109.619%.

Turning to `CN(C)S(=O)(=O)N1CCN(c2ccc([N+](=O)[O-])c(NC3C4CC5CC(C4)CC3C5)c2)CC1` (stereo not shown) [CBK268986], the “% of control remaining” value is recorded as 135.719%.

Take `COc1ccc2[nH]cc(CCNC3CCc4cccc(OC)c4C3)c2c1` (stereo not shown) [CBK016569C]: the “% of control remaining” value is 86.7606%.

In the case of `Cn1cc2c(n1)[C@H]1CN(C(=O)c3cc(C(F)(F)F)nn3C)C[C@H]1C2` [CBK283400], the “% of control remaining” value came out at 140.414%.

As for `Cn1cc(C(=O)N2CCC(c3ccccc3)C2)c2ccccc2c1=O` (stereo not shown) [CBK281921], the “% of control remaining” value turned out to be 105.29%.

With `O=c1[nH]nc(SCCOc2c(Cl)c(Cl)c(Cl)c(Cl)c2Cl)c(=O)[nH]1` [CBK262794], the “% of control remaining” value stood at 100%.

Take `COc1ccc(S(=O)(=O)Nc2cc(N3CCCC3)c3occc3c2)cc1OC` [CBK061975]: the “% of control remaining” value stood at 126.828%.

`NC(=O)COc1ccc(C2Nc3ccccc3C(=O)N2C2CC2)cc1` (stereo not shown) [CBK295198]: the “% of control remaining” value amounted to 143.147%.
